The text below walks through data of paper PMC5030711 (Scientific Reports, 2016).

HELM strings list residues between dots; [ac] is acetyl, [am] amide, other brackets name non-standard units.

This series can be described thus: peptide made by a vendor. The settings on record: whole synthesis.

“PEPTIDE1{[HYNIC].S.F.S.I.I.H.T.P.I.L.P.L}$$$$V2.0”: the “purity (crude or final not stated)” value was found to be 95%.
